Data from article PMC12501288.
No constants are given. Whether binding was seen depends on the method and setting. Binding seen in cells or lysates may run through a third protein. For some of these results: Binding can be weak; no strength is given.

Amino acid sequences for entries named in this document (tags omitted). A change or cut given only in a name is not applied to a line headed by its entry.
UniProt P01106: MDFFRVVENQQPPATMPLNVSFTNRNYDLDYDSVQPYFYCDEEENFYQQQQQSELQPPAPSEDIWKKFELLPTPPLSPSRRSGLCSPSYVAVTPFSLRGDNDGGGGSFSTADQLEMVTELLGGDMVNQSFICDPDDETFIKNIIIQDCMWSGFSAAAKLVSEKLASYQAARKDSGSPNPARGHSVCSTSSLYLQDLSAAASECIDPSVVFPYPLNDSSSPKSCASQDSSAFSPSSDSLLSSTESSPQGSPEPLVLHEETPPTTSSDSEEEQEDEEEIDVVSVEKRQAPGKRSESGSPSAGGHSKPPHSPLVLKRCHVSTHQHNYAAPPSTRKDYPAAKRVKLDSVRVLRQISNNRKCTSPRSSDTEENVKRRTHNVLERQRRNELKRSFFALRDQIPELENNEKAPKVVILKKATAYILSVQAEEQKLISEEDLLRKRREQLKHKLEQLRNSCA
UniProt Q13950: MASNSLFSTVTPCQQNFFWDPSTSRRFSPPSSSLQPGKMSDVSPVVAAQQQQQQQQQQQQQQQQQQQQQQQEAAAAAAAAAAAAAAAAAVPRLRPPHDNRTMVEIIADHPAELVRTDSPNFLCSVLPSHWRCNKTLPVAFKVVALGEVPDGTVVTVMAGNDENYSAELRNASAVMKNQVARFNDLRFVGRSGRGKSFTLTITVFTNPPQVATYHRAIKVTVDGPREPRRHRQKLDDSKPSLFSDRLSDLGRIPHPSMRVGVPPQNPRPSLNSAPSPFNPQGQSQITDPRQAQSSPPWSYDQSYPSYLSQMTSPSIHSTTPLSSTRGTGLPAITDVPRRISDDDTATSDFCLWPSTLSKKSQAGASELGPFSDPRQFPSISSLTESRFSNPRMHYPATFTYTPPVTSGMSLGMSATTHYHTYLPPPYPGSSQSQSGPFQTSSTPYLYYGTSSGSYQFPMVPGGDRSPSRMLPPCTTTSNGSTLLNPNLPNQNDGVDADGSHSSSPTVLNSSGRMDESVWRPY

Tests used:
Assay in all cases: co-IP; 293T cells co-transfected with Flag-tagged RUNX2 (full length or deletion mutants) and HA-tagged c-Myc (full length or deletion mutants); lysed in IP buffer, antibody overnight at 4 °C, protein A/G beads, immunoblot
[1] = target: HA-tagged full-length c-Myc (not stated (human or mouse cDNA cloned)) (UniProt P01106)
[2] = target: HA-tagged c-Myc mutant lacking the MB3 domain (not stated (human or mouse cDNA cloned)) (UniProt P01106)
[3] = target: HA-tagged c-Myc mutant lacking the MB2 domain (not stated (human or mouse cDNA cloned)) (UniProt P01106)
[4] = target: HA-tagged c-Myc mutant lacking the MB1 domain (not stated (human or mouse cDNA cloned)) (UniProt P01106)

| binding [1] | binding [2] | binding [3] | binding [4] | Substance |
| --- | --- | --- | --- | --- |
| no binding |  |  |  | Flag-tagged RUNX2 mutant lacking the Runt-homology domain (from UniProt Q13950) |
|  | binds | binds | no binding | Flag-tagged full-length RUNX2 (Runt-related transcription factor 2) (from UniProt Q13950 1-521) |
